Reference: US6821751B2, “Hypoxia responsive transcription enhancer element from yeast” (The Brigham and Women's Hospital, Inc., priority 2001, dated 2004)
Results from cells or extracts need not show a direct contact. For some assays here: A negative result means that nothing was seen under these conditions. Tags and fusion partners may be left off the protein sequences shown.

Assays:
[1] = molecular target: T1, RAP1p (constitutive EMSA complex B3) (Saccharomyces cerevisiae) (UniProt P11938); assay: EMSA; conditions: constitutive complex same as B3 by cold competition; protein in an extract; label: 32P; variant of OLE1 LORE (oligo 10-5'/10-3')
T1 sequence (looked up, limits assumed): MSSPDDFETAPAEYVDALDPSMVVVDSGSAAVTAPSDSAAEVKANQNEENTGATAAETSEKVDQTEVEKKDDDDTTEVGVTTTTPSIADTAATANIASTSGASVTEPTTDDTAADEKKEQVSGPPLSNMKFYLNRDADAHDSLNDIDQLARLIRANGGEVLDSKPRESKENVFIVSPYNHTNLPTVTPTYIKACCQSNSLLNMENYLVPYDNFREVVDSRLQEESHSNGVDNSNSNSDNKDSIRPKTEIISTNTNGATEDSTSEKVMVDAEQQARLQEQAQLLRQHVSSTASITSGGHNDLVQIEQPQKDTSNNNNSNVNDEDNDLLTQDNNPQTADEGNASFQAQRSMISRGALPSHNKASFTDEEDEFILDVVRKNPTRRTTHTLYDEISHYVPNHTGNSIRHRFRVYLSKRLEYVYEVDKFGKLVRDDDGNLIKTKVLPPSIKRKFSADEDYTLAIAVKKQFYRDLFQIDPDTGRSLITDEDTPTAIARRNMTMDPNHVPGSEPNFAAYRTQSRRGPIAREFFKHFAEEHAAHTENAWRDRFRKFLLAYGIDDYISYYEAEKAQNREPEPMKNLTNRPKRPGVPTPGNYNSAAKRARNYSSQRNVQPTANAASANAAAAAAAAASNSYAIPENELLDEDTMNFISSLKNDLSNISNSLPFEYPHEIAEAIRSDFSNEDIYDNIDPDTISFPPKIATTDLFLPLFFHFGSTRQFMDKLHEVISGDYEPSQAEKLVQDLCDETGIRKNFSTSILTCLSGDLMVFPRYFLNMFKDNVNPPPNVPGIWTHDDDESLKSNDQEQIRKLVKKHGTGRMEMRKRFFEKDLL

[2] = molecular target: T1, RAP1p (constitutive EMSA complex B3) (Saccharomyces cerevisiae); assay: competition with a labelled probe; conditions: unlabeled OLE1 LORE did not compete B3; protein in an extract; label: 32P

| Sequence | binding result [1] | binding result [2] |
| --- | --- | --- |
| GAACACCCAACAAACCTTAT (double strand) [LORE T341C] | binds |  |
| GAACACTCAACAAACCTTAT (double strand) [OLE1 LORE (oligo 10-5'/10-3')] |  | no binding |
